Measurements as given in patent US6239284A, “Aromatic tetracyclic compounds of the retinoid type method for preparing and use” (priority 1997, dated 2001).
At least one structure is not confirmed: it was looked up by name or label, or the drawing left a doubt.

System: RAR
Assay: GAL-RAR model, specificity profile (transient transfection of HeLa cells)

## C/C(=C\c1ccc(C(=O)O)cc1)c1ccc2c(c1)C(C)(C)CCC2(C)C [TTNPB]
  GAL-RAR agonist profile in words: good RAR agonists
